From US20140314789A1 come the findings set out here.

Protein sequences, listed by entry. Tags and fused reporters are not part of them.
UniProt P29994: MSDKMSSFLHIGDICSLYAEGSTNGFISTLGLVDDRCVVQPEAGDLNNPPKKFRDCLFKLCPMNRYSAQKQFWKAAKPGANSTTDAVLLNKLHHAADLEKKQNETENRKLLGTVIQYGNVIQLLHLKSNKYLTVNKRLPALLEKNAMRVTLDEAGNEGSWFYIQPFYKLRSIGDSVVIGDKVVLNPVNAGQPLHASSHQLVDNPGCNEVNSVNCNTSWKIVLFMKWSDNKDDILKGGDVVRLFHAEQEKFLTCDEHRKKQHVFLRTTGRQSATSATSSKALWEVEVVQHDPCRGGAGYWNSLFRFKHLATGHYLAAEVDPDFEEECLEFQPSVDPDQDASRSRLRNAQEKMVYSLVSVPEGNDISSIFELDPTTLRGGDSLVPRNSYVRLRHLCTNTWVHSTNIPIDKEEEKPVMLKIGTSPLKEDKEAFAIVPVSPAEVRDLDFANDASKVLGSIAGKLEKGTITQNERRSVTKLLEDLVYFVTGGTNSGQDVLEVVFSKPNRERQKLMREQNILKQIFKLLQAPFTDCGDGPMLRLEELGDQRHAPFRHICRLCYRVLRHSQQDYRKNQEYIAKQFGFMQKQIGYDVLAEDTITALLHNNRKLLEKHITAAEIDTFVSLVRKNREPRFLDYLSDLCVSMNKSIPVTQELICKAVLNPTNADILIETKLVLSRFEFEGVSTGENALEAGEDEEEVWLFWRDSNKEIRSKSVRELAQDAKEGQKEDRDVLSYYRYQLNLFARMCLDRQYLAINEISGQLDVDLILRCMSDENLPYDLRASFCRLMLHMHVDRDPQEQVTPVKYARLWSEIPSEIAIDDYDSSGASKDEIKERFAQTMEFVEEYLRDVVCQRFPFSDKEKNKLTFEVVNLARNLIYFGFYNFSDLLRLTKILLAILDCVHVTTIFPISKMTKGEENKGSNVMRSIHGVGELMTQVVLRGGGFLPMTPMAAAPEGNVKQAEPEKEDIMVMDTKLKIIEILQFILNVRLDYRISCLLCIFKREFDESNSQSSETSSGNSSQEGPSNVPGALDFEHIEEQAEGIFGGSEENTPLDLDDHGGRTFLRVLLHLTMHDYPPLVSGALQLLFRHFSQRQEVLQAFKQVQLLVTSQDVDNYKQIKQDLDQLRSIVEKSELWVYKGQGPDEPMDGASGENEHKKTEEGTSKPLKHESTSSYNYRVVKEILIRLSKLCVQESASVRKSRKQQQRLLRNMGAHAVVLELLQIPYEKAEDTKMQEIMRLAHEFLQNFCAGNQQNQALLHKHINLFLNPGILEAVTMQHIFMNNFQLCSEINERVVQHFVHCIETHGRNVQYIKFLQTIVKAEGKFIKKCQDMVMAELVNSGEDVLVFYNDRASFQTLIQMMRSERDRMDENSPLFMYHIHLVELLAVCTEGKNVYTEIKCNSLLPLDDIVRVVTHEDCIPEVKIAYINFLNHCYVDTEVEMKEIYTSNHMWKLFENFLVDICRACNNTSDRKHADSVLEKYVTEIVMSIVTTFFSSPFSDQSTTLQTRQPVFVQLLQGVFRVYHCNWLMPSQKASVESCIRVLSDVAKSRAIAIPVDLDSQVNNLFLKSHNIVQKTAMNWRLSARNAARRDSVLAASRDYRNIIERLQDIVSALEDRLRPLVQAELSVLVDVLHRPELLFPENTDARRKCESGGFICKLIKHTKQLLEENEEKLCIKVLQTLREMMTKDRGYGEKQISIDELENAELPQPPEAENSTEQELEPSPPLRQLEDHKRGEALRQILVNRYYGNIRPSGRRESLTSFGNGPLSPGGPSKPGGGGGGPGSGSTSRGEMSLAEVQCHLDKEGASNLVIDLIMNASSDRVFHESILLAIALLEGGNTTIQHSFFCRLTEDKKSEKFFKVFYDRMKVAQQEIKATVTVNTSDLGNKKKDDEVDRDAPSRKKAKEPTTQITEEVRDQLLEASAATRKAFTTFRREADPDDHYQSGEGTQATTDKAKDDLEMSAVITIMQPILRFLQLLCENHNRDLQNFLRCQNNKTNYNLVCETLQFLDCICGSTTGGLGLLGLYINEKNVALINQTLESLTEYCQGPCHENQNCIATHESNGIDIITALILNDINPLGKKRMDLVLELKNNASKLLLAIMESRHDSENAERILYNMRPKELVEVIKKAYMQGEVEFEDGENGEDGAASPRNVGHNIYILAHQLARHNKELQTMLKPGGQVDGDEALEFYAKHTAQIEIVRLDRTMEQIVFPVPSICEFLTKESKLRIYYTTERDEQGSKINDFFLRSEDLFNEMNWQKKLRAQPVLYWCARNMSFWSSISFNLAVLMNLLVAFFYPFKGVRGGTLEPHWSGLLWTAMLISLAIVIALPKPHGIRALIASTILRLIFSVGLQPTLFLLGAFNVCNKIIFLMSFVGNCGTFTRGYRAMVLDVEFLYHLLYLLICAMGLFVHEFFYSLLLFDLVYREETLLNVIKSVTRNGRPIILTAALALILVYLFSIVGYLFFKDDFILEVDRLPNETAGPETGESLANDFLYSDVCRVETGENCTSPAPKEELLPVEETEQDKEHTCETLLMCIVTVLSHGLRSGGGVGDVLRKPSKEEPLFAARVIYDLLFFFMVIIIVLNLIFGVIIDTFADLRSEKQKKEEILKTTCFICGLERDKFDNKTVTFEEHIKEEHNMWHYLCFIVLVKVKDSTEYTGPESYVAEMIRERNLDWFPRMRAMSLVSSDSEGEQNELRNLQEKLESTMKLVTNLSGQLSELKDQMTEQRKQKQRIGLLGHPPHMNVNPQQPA
UniProt P11881: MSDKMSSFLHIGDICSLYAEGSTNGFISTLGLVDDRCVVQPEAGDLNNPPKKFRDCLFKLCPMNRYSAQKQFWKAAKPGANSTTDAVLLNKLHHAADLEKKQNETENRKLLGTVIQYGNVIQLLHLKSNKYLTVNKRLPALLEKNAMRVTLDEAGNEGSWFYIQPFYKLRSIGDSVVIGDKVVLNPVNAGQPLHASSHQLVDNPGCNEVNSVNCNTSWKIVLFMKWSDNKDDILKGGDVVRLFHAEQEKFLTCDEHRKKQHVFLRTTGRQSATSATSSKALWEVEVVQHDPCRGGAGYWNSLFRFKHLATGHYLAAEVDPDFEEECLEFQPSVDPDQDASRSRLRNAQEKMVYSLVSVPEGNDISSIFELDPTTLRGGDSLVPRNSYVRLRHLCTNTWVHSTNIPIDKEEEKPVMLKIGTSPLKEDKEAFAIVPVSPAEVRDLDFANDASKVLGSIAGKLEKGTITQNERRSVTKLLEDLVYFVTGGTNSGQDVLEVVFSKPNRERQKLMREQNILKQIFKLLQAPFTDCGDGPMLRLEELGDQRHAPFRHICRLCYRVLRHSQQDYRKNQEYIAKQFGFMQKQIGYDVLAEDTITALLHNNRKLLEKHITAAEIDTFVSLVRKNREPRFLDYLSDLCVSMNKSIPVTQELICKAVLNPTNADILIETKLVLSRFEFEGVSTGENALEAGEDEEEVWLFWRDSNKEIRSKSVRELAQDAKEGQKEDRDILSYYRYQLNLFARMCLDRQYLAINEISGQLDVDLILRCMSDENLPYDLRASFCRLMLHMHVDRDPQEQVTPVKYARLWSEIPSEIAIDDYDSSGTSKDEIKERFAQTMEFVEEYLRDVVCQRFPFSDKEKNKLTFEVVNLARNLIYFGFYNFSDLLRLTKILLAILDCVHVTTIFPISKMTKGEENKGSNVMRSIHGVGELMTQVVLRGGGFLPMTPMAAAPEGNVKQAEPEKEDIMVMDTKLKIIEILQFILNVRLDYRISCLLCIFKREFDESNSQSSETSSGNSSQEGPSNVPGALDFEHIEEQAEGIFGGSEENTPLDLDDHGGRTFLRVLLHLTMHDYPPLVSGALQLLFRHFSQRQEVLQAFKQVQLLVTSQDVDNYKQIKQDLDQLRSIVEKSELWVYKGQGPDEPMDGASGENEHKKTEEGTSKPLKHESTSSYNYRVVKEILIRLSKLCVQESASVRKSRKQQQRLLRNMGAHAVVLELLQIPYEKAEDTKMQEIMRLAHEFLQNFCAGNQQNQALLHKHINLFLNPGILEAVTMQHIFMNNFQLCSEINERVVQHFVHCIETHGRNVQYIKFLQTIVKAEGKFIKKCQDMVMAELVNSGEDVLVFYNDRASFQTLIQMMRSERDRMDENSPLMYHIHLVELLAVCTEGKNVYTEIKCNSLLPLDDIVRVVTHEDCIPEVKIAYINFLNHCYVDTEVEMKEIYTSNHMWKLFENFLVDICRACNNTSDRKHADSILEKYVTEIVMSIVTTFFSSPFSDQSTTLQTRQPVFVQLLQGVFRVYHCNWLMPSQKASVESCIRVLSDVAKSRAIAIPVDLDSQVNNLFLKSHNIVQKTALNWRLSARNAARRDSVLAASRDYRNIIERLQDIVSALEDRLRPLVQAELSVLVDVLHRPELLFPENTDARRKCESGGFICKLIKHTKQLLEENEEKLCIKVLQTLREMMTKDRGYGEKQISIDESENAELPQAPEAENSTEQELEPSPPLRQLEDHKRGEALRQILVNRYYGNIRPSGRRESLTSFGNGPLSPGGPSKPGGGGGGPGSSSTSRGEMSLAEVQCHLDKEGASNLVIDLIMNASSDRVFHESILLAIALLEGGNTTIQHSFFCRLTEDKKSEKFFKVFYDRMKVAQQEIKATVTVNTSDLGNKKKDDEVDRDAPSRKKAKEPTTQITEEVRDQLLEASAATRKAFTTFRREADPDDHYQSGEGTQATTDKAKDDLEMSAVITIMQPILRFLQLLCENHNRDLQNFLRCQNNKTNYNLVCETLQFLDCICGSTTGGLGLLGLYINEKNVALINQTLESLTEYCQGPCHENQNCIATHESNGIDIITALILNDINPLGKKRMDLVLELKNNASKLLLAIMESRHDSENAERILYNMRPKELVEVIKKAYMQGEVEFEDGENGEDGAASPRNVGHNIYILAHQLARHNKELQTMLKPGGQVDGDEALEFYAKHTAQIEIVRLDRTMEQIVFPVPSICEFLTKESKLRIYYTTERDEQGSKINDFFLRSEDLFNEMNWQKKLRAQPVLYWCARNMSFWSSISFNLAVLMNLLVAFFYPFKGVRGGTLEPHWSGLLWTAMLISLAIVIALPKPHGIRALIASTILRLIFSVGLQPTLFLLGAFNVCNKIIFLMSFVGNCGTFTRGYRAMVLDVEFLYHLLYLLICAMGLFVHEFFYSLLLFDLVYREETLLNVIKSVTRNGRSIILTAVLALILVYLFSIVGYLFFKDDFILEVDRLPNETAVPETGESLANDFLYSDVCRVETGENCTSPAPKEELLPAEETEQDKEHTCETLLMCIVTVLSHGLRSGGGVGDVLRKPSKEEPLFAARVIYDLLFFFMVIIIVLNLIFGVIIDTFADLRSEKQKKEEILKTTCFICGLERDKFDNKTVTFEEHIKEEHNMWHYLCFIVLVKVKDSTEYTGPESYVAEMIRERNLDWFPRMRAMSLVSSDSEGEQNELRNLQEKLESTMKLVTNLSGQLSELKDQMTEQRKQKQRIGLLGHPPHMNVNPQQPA

The target of test [1] is HA-tagged InsP3R1 (rat) (UniProt P29994). The test is described as follows: co-immunoprecipitation, HA IP and Flag immunoblot, HEK293T cells. (In general: Immunoblotting shows a protein as a band on a membrane.)
The target is the same in test [2]. The test is described as follows: co-immunoprecipitation of tagged proteins in HEK293T cells (FIGS. 45B-D).
Test [3] has as its target InsP3R1 in primary mouse hepatocytes (mouse) (UniProt P11881). The test is described as follows: co-immunoprecipitation in primary hepatocytes (FIG. 35F).
For test [4] the target is unchanged. The test is described as follows: co-immunoprecipitation, primary hepatocytes, with or without glucagon (100 nM; 15 minutes).

Results are given in words; binding and its absence hold for the method and conditions named. In cells and extracts the contact can be indirect. Some results given as binding are weak or reduced against the parent protein; the word gives no strength. For some of these results: Where a sequence is shown, tags or fusion partners need not be part of it.

B1: Flag-tagged CRTC2 (wild-type) (protein, mouse, UniProt Q3U182 1-692, looked up)
chain: MATSGANGPGSATASASNPRKFSEKIALQKQRQAEETAAFEEVMMDIGSTRLQAQKLRLAYTRSSHYGGSLPNVNQIGCGLAEFQSPLHSPLDSSRSTRHHGLVERVQRDARRMVSPLRRYPRHIDSSPYSPAYLSPPPESGWRRMMPWGNLPAEKGQLFRLPSALNRTSSDSALHTSVMNPNPQDTYPGPTPPSVLPSRRGGGFLDGEMDAKVPAIEENVVDDKHLLKPWDAKKLSSSSSRPRSCEVPGINIFPSPDQPANVPVLPPAMNTGGSLPDLTNLHFPPPLPTPLDPEETVYPSLSGGNSTTNLTHTMTHLGISGGLGLGPSYDVPGLHSPLSHPSLQSSLSNPNLQASLSSPQPQLQGSHSHPSLPASSLAHHALPTTSLGHPSLSAPALSSSSSSSSTSSPVLSAPPYPASTPGASPRHRRVPLSPLSLPAGPADARRSQQQLPKQFSPTMSPTLSSITQGVPLDTSKLPTDQRLPPYPYSPPSLVIPTHPPTPKSLQQLPSQACLVQPSGGQPPGRQPHYGALYPPGSSGHGQQPYHRPINDFSLGNLEQFNMESPSTSLVLDPPAFSEGPGFLGSEGSMSGPQDPHVLNHQNLTHCSRHGSGPNIILTGDSSPGFSKEIAAALAGVPGFEVSASGLELGLGLEDELRMEPLGLEGLTMLSDPCALLPDPAVEDSFRSDRLQ
In the case of B1, the binding entry with HA-tagged InsP3R1 (rat) [1] and in the test with HA-tagged InsP3R1 (rat) [2] was “binds” in each case.

B2: CRTC2 in primary mouse hepatocytes (protein, UniProt Q3U182 2-692, looked up)
chain: ATSGANGPGSATASASNPRKFSEKIALQKQRQAEETAAFEEVMMDIGSTRLQAQKLRLAYTRSSHYGGSLPNVNQIGCGLAEFQSPLHSPLDSSRSTRHHGLVERVQRDARRMVSPLRRYPRHIDSSPYSPAYLSPPPESGWRRMMPWGNLPAEKGQLFRLPSALNRTSSDSALHTSVMNPNPQDTYPGPTPPSVLPSRRGGGFLDGEMDAKVPAIEENVVDDKHLLKPWDAKKLSSSSSRPRSCEVPGINIFPSPDQPANVPVLPPAMNTGGSLPDLTNLHFPPPLPTPLDPEETVYPSLSGGNSTTNLTHTMTHLGISGGLGLGPSYDVPGLHSPLSHPSLQSSLSNPNLQASLSSPQPQLQGSHSHPSLPASSLAHHALPTTSLGHPSLSAPALSSSSSSSSTSSPVLSAPPYPASTPGASPRHRRVPLSPLSLPAGPADARRSQQQLPKQFSPTMSPTLSSITQGVPLDTSKLPTDQRLPPYPYSPPSLVIPTHPPTPKSLQQLPSQACLVQPSGGQPPGRQPHYGALYPPGSSGHGQQPYHRPINDFSLGNLEQFNMESPSTSLVLDPPAFSEGPGFLGSEGSMSGPQDPHVLNHQNLTHCSRHGSGPNIILTGDSSPGFSKEIAAALAGVPGFEVSASGLELGLGLEDELRMEPLGLEGLTMLSDPCALLPDPAVEDSFRSDRLQ
Consider B2, for which the binding entry in test [3] and in test [4] was “binds” in each case.
